PMC5042004
Results are given in words; binding and its absence hold for the method and conditions named. In cells and extracts the contact can be indirect. A yes stands for co-enrichment or nearness to the bait. Other partners may have been found.

By UniProt entry, the sequences of proteins in these tests, tags left out. Where a name states a change or a piece, a line headed by the entry shows the natural chain unless it says otherwise.
UniProt P15056: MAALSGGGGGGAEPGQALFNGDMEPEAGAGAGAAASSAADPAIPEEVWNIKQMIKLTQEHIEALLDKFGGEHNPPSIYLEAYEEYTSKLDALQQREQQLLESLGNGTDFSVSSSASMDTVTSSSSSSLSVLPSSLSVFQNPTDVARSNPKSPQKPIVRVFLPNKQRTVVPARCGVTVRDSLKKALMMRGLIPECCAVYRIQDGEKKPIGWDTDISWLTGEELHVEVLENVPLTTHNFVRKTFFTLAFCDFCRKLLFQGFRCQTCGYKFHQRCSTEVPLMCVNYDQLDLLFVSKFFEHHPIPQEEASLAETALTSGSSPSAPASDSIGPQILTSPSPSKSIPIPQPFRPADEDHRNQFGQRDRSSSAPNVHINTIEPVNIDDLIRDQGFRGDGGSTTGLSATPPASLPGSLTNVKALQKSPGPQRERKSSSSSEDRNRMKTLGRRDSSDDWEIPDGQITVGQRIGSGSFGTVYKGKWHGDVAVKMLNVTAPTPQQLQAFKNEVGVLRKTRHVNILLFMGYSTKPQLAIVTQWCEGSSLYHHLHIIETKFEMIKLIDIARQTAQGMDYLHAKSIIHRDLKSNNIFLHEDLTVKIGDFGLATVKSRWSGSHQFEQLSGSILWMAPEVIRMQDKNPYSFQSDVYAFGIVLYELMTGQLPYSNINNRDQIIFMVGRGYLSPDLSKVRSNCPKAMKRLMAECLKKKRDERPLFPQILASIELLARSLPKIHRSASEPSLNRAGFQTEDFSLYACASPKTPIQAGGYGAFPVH

Experiments:
[1] = biological target: B-Raf purified from MEFs (HA-tagged add-back or endogenous; the text does not tell which) (not stated (HA-tagged human cDNA or endogenous mouse)) (UniProt P15056); assay: affinity purification with mass spectrometry; IP of B-Raf from MEFs; the text does not tell whether HA-tagged add-back or endogenous B-Raf
[2] = biological target: HA-tagged B-Raf^D594A re-expressed in Braf deficient MEFs (human) (UniProt P15056); assay: affinity purification with mass spectrometry; anti-HA IP of HA-tagged B-Raf^WT or B-Raf^D594A from complemented Braf-/- MEFs expressing H-Ras^G12V::ER^TM; with or without 4-HT and 10 uM sorafenib; SILAC-based MS against vector control or B-Raf^WT IPs
[3] = biological target: HA-tagged B-Raf^WT expressed in MCF-10A cells (UniProt P15056); assay: affinity purification with mass spectrometry; anti-HA agarose IP of HA-tagged B-Raf^WT from MCF-10A cells against empty vector cells

B1: PPP1R10, a regulatory subunit of the PP1 holo-phosphatase complex (mouse, MEFs) (protein, UniProt Q80W00 1-888)
chain: MGSGPIDPKELLKGLDSFLTRDGEVKSVDGISKIFSLMKEARKMVSRCTYLNIILQTRAPEVLVKFIDVGGYKLLNNWLTYSKTTNNIPLLQQILLTLQHLPLTVDHLKQNNTAKLVKQLSKSSEDEELRKLASVLVSDWMAVIRSQSSTQPAEKDKKKRKEEGKSRTTLPERPLTEVKAETRAEEAPEKKKEKPKSLRTTAPSHAKFRSTGLELDTPSLVPVKKNSSTVVVSDKYNLKPIPLKRQSATAAPGDAAPPAEKKYKPLNTAPNTTKEIKVKIIPPQPMEGLGFLDALNSAPVPGIKIKKKKKVLSPTAAKPSPFEGKTSTEQSTAKPSSPEPAPPAEPMDTDRPGTPVPPVEVPELMDAASSEPGALDAKPVDSPGDPNQLTRKGRKRKTVTWPEEGKLREYFYFELDETERVNVNKIKDFGEAAKREILSDRHAFETARRLSHDNMEEKVPWVCPRPLVLPSPLVIPGSNSQERYIQAEREKGILQELFLNKESPHEPDPEPYEPIPPKLIPLDEECAMDETPYVETLEPGGSGGSPDGAGGSKLPPVLANLMGSMGAGKSPQGPGGGGINVQEILTSIMGSPNSHPSEELLKQPDYSDKLKQMLVPHGLLGPGPVANGFPPGGPGGPKGMQHFPPGPGGPMPGPHGGPGGPVGPRLLGPPPPSRGGDPFWDGPGDPMRGGPMRGGPGPAPGPYHRGRGGRGGNEPPPPPPFRGARGGRSGGGPPNGRGGPGGGGMVGGGGHRPHEGPGGSMGSGHRSHDGPGGNMGSGHRSHDGPGGNMGGSGGHRSHEGPGHGGPHGHRPHDVPSHRGHDHRGPPPHEHRGHDGHGGGGHRGHDGGHSHGGDMSNRPVCRHFMMKGNCRYENNCAFYHPGVNGPPLP
B1 was tested, and the binding [1] was “binds”.

B2: sphingosine-1-phosphate lyase (mouse, MEFs) (enzyme, UniProt Q8R0X7 1-568)
chain: MPGTDLLKLKDFEPYLEILESYSTKAKNYVNGYCTKYEPWQLIAWSVLCTLLIVWVYELIFQPESLWSRFKKKLFKLIRKMPFIGRKIEQQVSKAKKDLVKNMPFLKVDKDYVKTLPAQGMGTAEVLERLKEYSSMDGSWQEGKASGAVYNGEPKLTELLVQAYGEFTWSNPLHPDIFPGLRKLEAEIVRMTCSLFNGGPDSCGCVTSGGTESILMACKAYRDLALEKGIKTPEIVAPESAHAAFDKAAHYFGMKIVRVALKKNMEVDVQAMKRAISRNTAMLVCSTPQFPHGVMDPVPEVAKLAVRYKIPLHVDACLGGFLIVFMEKAGYPLEKPFDFRVKGVTSISADTHKYGYAPKGSSVVMYSNEKYRTYQFFVGADWQGGVYASPSIAGSRPGGIIAACWAALMHFGENGYVEATKQIIKTARFLKSELENIKNIFIFGDPQLSVIALGSNDFDIYRLSNMMSAKGWNFNYLQFPRSIHFCITLVHTRKRVAIQFLKDIRESVTQIMKNPKAKTTGMGAIYGMAQATIDRKLVAEISSVFLDCLYTTDPVTQGNQMNGSPKPR
For B2, the binding [2] was “binds”.

B3: FKBP5 (human, MCF-10A) (protein, UniProt Q13451 1-457)
chain: MTTDEGAKNNEESPTATVAEQGEDITSKKDRGVLKIVKRVGNGEETPMIGDKVYVHYKGKLSNGKKFDSSHDRNEPFVFSLGKGQVIKAWDIGVATMKKGEICHLLCKPEYAYGSAGSLPKIPSNATLFFEIELLDFKGEDLFEDGGIIRRTKRKGEGYSNPNEGATVEIHLEGRCGGRMFDCRDVAFTVGEGEDHDIPIGIDKALEKMQREEQCILYLGPRYGFGEAGKPKFGIEPNAELIYEVTLKSFEKAKESWEMDTKEKLEQAAIVKEKGTVYFKGGKYMQAVIQYGKIVSWLEMEYGLSEKESKASESFLLAAFLNLAMCYLKLREYTKAVECCDKALGLDSANEKGLYRRGEAQLLMNEFESAKGDFEKVLEVNPQNKAARLQISMCQKKAKEHNERDRRIYANMFKKFAEQDAKEEANKAMGKKTSEGVTNEKGTDSQAMEEEKPEGHV
B3 was tested, and the binding [3] was “binds”.
